{
  "source": "the supplement of paper PMC8728848",
  "experiment_in_all_cases": "glycan array binding signal (z-score within array); higher = stronger binding",
  "conditions_in_all_cases": "glycan notation: IUPAC condensed, linker removed; mutation: Y54A",
  "key": {"[1]": {"target": "Neu5Ac(a2-6)Gal(b1-4)GlcNAc(b1-3)Gal(b1-4)GlcNAc(b1-3)Gal(b1-4)GlcNAc(b1-2)Man(a1-3)[Neu5Ac(a2-6)Gal(b1-4)GlcNAc(b1-3)Gal(b1-4)GlcNAc(b1-3)Gal(b1-4)GlcNAc(b1-2)Man(a1-6)]GalNAc", "outline": "(§1)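 The Consortium for Functional Glycomics database supplied 3228 glycan arrays, of which those lacking an available protein sequence were dropped. The binding signal, a within-array Z-score, was averaged across arrays of the same protein sequence and across linkers. Negative scores can be read as non-binding.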"}, "[2]": {"target": "Neu5Ac(a2-6)Gal(b1-4)GlcNAc(b1-3)Gal(b1-4)GlcNAc(b1-3)GalNAc", "outline": "as §1"}, "[3]": {"target": "Neu5Ac(a2-6)Gal(b1-4)GlcNAc(b1-3)Gal(b1-4)GlcNAc(b1-3)[Neu5Ac(a2-6)Gal(b1-4)GlcNAc(b1-3)Gal(b1-4)GlcNAc(b1-6)]GalNAc", "outline": "as §1"}, "[4]": {"target": "Neu5Ac(a2-6)Gal(b1-4)GlcNAc(b1-3)Gal(b1-4)GlcNAc(b1-6)[Gal(b1-3)]GalNAc", "outline": "as §1"}, "[5]": {"target": "Neu5Ac(a2-6)Gal(b1-4)GlcNAc(b1-3)Gal(b1-4)[Fuc(a1-3)]GlcNAc(b1-3)Gal(b1-4)[Fuc(a1-3)]GlcNAc", "outline": "as §1"}, "[6]": {"target": "Neu5Ac(a2-6)Gal(b1-4)GlcNAc(b1-3)GalNAc", "outline": "as §1"}, "[7]": {"target": "Neu5Ac(a2-6)Gal(b1-4)GlcNAc(b1-3)[Neu5Ac(a2-6)Gal(b1-4)GlcNAc(b1-6)]GalNAc", "outline": "as §1"}, "[8]": {"target": "Neu5Ac(a2-6)Gal(b1-4)GlcNAc(b1-6)GalNAc", "outline": "as §1"}, "[9]": {"target": "Neu5Ac(a2-6)Gal(b1-4)GlcNAc(b1-6)[Gal(b1-3)GlcNAc(b1-3)]Gal(b1-4)Glc", "outline": "as §1"}, "[10]": {"target": "Neu5Ac(a2-6)Gal(b1-4)GlcNAc(b1-6)[Gal(b1-3)]GalNAc", "outline": "as §1"}, "[11]": {"target": "Neu5Ac(a2-6)Gal(b1-4)GlcNAc6S", "outline": "as §1"}, "Neu5Ac(a2-6)GalNAc": {"target": "Neu5Ac(a2-6)GalNAc", "outline": "as §1"}, "[12]": {"target": "Neu5Ac(a2-6)GalNAc(b1-4)GlcNAc", "outline": "as §1"}, "[13]": {"target": "Neu5Ac(a2-6)GalNAc(b1-4)GlcNAc6S", "outline": "as §1"}, "[14]": {"target": "Neu5Ac(a2-6)GlcNAc(b1-4)GlcNAc", "outline": "as §1"}, "[15]": {"target": "Neu5Ac(a2-6)GlcNAc(b1-4)GlcNAc(b1-4)GlcNAc", "outline": "as §1"}, "Neu5Ac(a2-8)Neu5Ac": {"target": "Neu5Ac(a2-8)Neu5Ac", "outline": "as §1"}, "[16]": {"target": "Neu5Ac(a2-8)Neu5Ac(a2-3)Gal(b1-3)GalNAc(b1-4)[Neu5Ac(a2-3)]Gal(b1-4)Glc", "outline": "as §1"}, "[17]": {"target": "Neu5Ac(a2-8)Neu5Ac(a2-3)Gal(b1-3)GalNAc(b1-4)[Neu5Ac(a2-8)Neu5Ac(a2-3)]Gal(b1-4)Glc", "outline": "as §1"}, "[18]": {"target": "Neu5Ac(a2-8)Neu5Ac(a2-3)Gal(b1-4)Glc", "outline": "as §1"}, "[19]": {"target": "Neu5Ac(a2-8)Neu5Ac(a2-3)Gal(b1-4)GlcNAc", "outline": "as §1"}, "[20]": {"target": "Neu5Ac(a2-8)Neu5Ac(a2-3)[Gal(b1-3)GalNAc(b1-4)]Gal(b1-4)Glc", "outline": "as §1"}, "[21]": {"target": "Neu5Ac(a2-8)Neu5Ac(a2-3)[GalNAc(b1-4)]Gal(b1-4)Glc", "outline": "as §1"}, "[22]": {"target": "Neu5Ac(a2-8)Neu5Ac(a2-8)Neu5Ac", "outline": "as §1"}, "[23]": {"target": "Neu5Ac(a2-8)Neu5Ac(a2-8)Neu5Ac(a2-3)Gal(b1-4)Glc", "outline": "as §1"}, "[24]": {"target": "Neu5Ac(a2-8)Neu5Ac(a2-8)Neu5Ac(a2-3)[Gal(b1-3)GalNAc(b1-4)]Gal(b1-4)Glc", "outline": "as §1"}, "[25]": {"target": "Neu5Ac(a2-8)Neu5Ac(a2-8)Neu5Ac(a2-3)[GalNAc(b1-4)]Gal(b1-4)Glc", "outline": "as §1"}, "[26]": {"target": "Neu5Ac(a2-8)Neu5Ac(a2-8)Neu5Ac(a2-8)Neu5Ac(a2-3)[GalNAc(b1-4)]Gal(b1-4)Glc", "outline": "as §1"}, "[27]": {"target": "Neu5Ac(a2-8)Neu5Gc(a2-3)Gal(b1-4)GlcNAc", "outline": "as §1"}, "[28]": {"target": "Neu5Ac(b2-6)Gal(b1-4)GlcNAc", "outline": "as §1"}, "Neu5Ac(b2-6)GalNAc": {"target": "Neu5Ac(b2-6)GalNAc", "outline": "as §1"}, "[29]": {"target": "Neu5Ac9Ac(a2-3)Gal(b1-3)GlcNAc", "outline": "as §1"}, "[30]": {"target": "Neu5Ac9Ac(a2-3)Gal(b1-4)GlcNAc", "outline": "as §1"}, "[31]": {"target": "Neu5Ac9Ac(a2-6)Gal(b1-4)GlcNAc", "outline": "as §1"}, "[32]": {"target": "Neu5Gc(a2-3)Gal(b1-3)GlcNAc", "outline": "as §1"}, "[33]": {"target": "Neu5Gc(a2-3)Gal(b1-3)[Fuc(a1-4)]GlcNAc", "outline": "as §1"}, "Neu5Gc(a2-3)Gal(b1-4)Glc": {"target": "Neu5Gc(a2-3)Gal(b1-4)Glc", "outline": "as §1"}, "[34]": {"target": "Neu5Gc(a2-3)Gal(b1-4)GlcNAc", "outline": "as §1"}, "[35]": {"target": "Neu5Gc(a2-3)Gal(b1-4)GlcNAc(b1-3)Gal(b1-4)GlcNAc(b1-2)Man(a1-3)[Neu5Gc(a2-3)Gal(b1-4)GlcNAc(b1-3)Gal(b1-4)GlcNAc(b1-2)Man(a1-6)]Man(b1-4)GlcNAc(b1-4)GlcNAc", "outline": "as §1"}, "[36]": {"target": "Neu5Gc(a2-3)Gal(b1-4)[Fuc(a1-3)]GlcNAc", "outline": "as §1"}, "[37]": {"target": "Neu5Gc(a2-6)Gal(b1-4)GlcNAc", "outline": "as §1"}, "Neu5Gc(a2-6)GalNAc": {"target": "Neu5Gc(a2-6)GalNAc", "outline": "as §1"}, "[38]": {"target": "Neu5Gc(a2-8)Neu5Ac(a2-3)Gal(b1-4)GlcNAc", "outline": "as §1"}, "[39]": {"target": "Neu5Gc(a2-8)Neu5Gc(a2-3)Gal(b1-4)GlcNAc", "outline": "as §1"}, "[40]": {"target": "Neu5Gc(a2-8)Neu5Gc(a2-3)Gal(b1-4)GlcNAc(b1-3)Gal(b1-4)GlcNAc", "outline": "as §1"}, "[41]": {"target": "Neu5Gc(a2-8)Neu5Gc(a2-6)Gal(b1-4)GlcNAc", "outline": "as §1"}, "[42]": {"target": "Neu5Gc(b2-6)Gal(b1-4)GlcNAc", "outline": "as §1"}},
  "note": "The list shows a part of the results.",
  "data": [
    {"binder": "CBP21 (Serratia marcescens), O83009 (protein) MNKTSRTLLSLGLLSAAMFGVSQQANAHGYVESPASRAYQCKLQLNTQCGSVQAEPQSVEGLKGFPQAGPADGHIASADKSTFFELDQQTPTRWNKLNLKTGPNSFTWKLTARHSTTSWRYFITKPNWDASQPLTRASFDLTPFCQFNDGGAIPAAQVTHQCNIPADRSGSHVILAVWDIADTANAFYQAIDVNLSK", "values": [
      {"measurement": "glycan array binding signal (z-score)", "setting": "[1]", "result": -0.018},
      {"measurement": "glycan array binding signal (z-score)", "setting": "[2]", "result": -0.371},
      {"measurement": "glycan array binding signal (z-score)", "setting": "[3]", "result": -0.8},
      {"measurement": "glycan array binding signal (z-score)", "setting": "[4]", "result": -1.14},
      {"measurement": "glycan array binding signal (z-score)", "setting": "[5]", "result": 4.6},
      {"measurement": "glycan array binding signal (z-score)", "setting": "[6]", "result": 0.029},
      {"measurement": "glycan array binding signal (z-score)", "setting": "[7]", "result": -0.488},
      {"measurement": "glycan array binding signal (z-score)", "setting": "[8]", "result": -0.287},
      {"measurement": "glycan array binding signal (z-score)", "setting": "[9]", "result": 0.165},
      {"measurement": "glycan array binding signal (z-score)", "setting": "[10]", "result": 0.13},
      {"measurement": "glycan array binding signal (z-score)", "setting": "[11]", "result": 3.37},
      {"measurement": "glycan array binding signal (z-score)", "setting": "Neu5Ac(a2-6)GalNAc", "result": 1.46},
      {"measurement": "glycan array binding signal (z-score)", "setting": "[12]", "result": 0.867},
      {"measurement": "glycan array binding signal (z-score)", "setting": "[13]", "result": -0.108},
      {"measurement": "glycan array binding signal (z-score)", "setting": "[14]", "result": 0.702},
      {"measurement": "glycan array binding signal (z-score)", "setting": "[15]", "result": -0.564},
      {"measurement": "glycan array binding signal (z-score)", "setting": "Neu5Ac(a2-8)Neu5Ac", "result": -0.571},
      {"measurement": "glycan array binding signal (z-score)", "setting": "[16]", "result": 0.148},
      {"measurement": "glycan array binding signal (z-score)", "setting": "[17]", "result": 0.171},
      {"measurement": "glycan array binding signal (z-score)", "setting": "[18]", "result": -0.018},
      {"measurement": "glycan array binding signal (z-score)", "setting": "[19]", "result": -0.151},
      {"measurement": "glycan array binding signal (z-score)", "setting": "[20]", "result": -0.051},
      {"measurement": "glycan array binding signal (z-score)", "setting": "[21]", "result": -0.419},
      {"measurement": "glycan array binding signal (z-score)", "setting": "[22]", "result": -0.212},
      {"measurement": "glycan array binding signal (z-score)", "setting": "[23]", "result": 0.027},
      {"measurement": "glycan array binding signal (z-score)", "setting": "[24]", "result": 2.59},
      {"measurement": "glycan array binding signal (z-score)", "setting": "[25]", "result": -0.385},
      {"measurement": "glycan array binding signal (z-score)", "setting": "[26]", "result": -0.249},
      {"measurement": "glycan array binding signal (z-score)", "setting": "[27]", "result": -0.455},
      {"measurement": "glycan array binding signal (z-score)", "setting": "[28]", "result": -0.803},
      {"measurement": "glycan array binding signal (z-score)", "setting": "Neu5Ac(b2-6)GalNAc", "result": -0.919},
      {"measurement": "glycan array binding signal (z-score)", "setting": "[29]", "result": -0.747},
      {"measurement": "glycan array binding signal (z-score)", "setting": "[30]", "result": 0.493},
      {"measurement": "glycan array binding signal (z-score)", "setting": "[31]", "result": 0.2},
      {"measurement": "glycan array binding signal (z-score)", "setting": "[32]", "result": 0.733},
      {"measurement": "glycan array binding signal (z-score)", "setting": "[33]", "result": 0.939},
      {"measurement": "glycan array binding signal (z-score)", "setting": "Neu5Gc(a2-3)Gal(b1-4)Glc", "result": -0.09},
      {"measurement": "glycan array binding signal (z-score)", "setting": "[34]", "result": -0.419},
      {"measurement": "glycan array binding signal (z-score)", "setting": "[35]", "result": 2.24},
      {"measurement": "glycan array binding signal (z-score)", "setting": "[36]", "result": -0.108},
      {"measurement": "glycan array binding signal (z-score)", "setting": "[37]", "result": -0.176},
      {"measurement": "glycan array binding signal (z-score)", "setting": "Neu5Gc(a2-6)GalNAc", "result": -0.069},
      {"measurement": "glycan array binding signal (z-score)", "setting": "[38]", "result": 2.65},
      {"measurement": "glycan array binding signal (z-score)", "setting": "[39]", "result": 1.37},
      {"measurement": "glycan array binding signal (z-score)", "setting": "[40]", "result": -0.897},
      {"measurement": "glycan array binding signal (z-score)", "setting": "[41]", "result": 1.93},
      {"measurement": "glycan array binding signal (z-score)", "setting": "[42]", "result": -0.206}
    ]}
  ]
}
